Measurements as given in article PMC7782499, “Progerinin, an optimized progerin-lamin A binding inhibitor, ameliorates premature senescence phenotypes of Hutchinson-Gilford progeria syndrome” (Communications Biology, 2021).
Several values for one entry are separate records, joined by “and”; a condition that tells them apart may be missing. Identical values can stand only once. Further values from the same series stand in other lists.

Test system: Lmna G609G/+ mouse
Assay: Body weight of Lmna G609G/+ mice
Type: in vivo
From the text: Fig. 3 In vivo favorable effect of SLC-D011. A Gross morphology of Lmna^G609G/G609G mice (10 weeks old) was ameliorated after injection with SLC-D011. At the same age, the experimental group (D011) of mice were larger than vehicle-injected control (Con) subjects regardless of gender. B, C SLC-D011 increases body weight B and extends life span C of Lmna^G609G/G609G progeria model mouse (Con: n = 8; SLC-D011: n = 8). Compared with 14.8 weeks of average (ave) life span with maximum (max) life span of 15.5 weeks, 20 mg/kg of intraperitoneal (i.p) injection (twice a week) of SLC-D011 could extend the life span upto 19 weeks (max = 21 weeks). Lmna^G609G/G609G mice were injected with SLC-D011 from age of 5-week old, *p < 0.05. D Gross morphology of SLC-D011 injected Lmna^G609G/+ mouse. […] E SLC-D011 increases body weights of Lmna^G609G/+ mice (Con: n = 10; SLC-D011: n = 11), *p < 0.05. F Favorable effect of SLC-D011 on life span of Lmna^G609G/+ mice. Compared with vehicle-injected control group (ave = 46.7 weeks and max = 48 weeks), SLC-D011 treatment obviously extended the average life span to 63 weeks (max = 64 weeks). The injection was started from 32 weeks old, **p < 0.001. “Con” means vehicle (a solvent composed of DMSO and PBS)-injected mouse group. TEXT PRINTED IN THE PICTURE: (C) D011: Kaplan-Meier survival curve in Lmna^G609G/G609G: Ave=19; Kaplan-Meier survival curve in Lmna^G609G/G609G: Max=21 | (F) D011: Kaplan-Meier survival curve in Lmna^G609G/+: Ave=63; Kaplan-Meier survival curve in Lmna^G609G/+: Max=64 DOUBTS OF THE COPYIST ABOUT THIS PICTURE: Panels C and F: the Ave/Max labels are not printed with a group name. They are assigned to D011 (solid curve) or Con (dashed curve) only by their position beside the curves. / Panel C Ave=14.8, Max=15.5 and panel F Ave=46.7, Max=48 stand beside the dashed Con curve. They are left out because Con is the control group, not a substance. / No unit is printed with the Ave/Max values. Only the axis reads Age (weeks).
Animal experiments were performed in a facility certified by the Association for Assessment and Accreditation of Laboratory Animal Care in compliance with animal policies approved by Pusan National University. The mouse work was performed under the study protocol PNU-2019-2181, as approved by the Institutional Animal Care and Use Committee. Lmna^G609G/609G mice were generated by timed mating of heterozygous Lmna^G609G/+ provided by Carlos López-Otín (Universidad de Oviedo, Asturias, Oviedo, Spain). SLC-D011 was mixed with dimethyl sulfoxide (DMSO) and phosphate-buffered saline (PBS). It was then intraperitoneally injected into mice (20 mg/kg twice per week from 5-week-old). SLC-D011 and lonafarnib were orally administrated to mice daily at a concentration of 10 mg/ml in monoolein-based solution. Lonafarnib was generously provided by Merck, the Progeria Research Foundation (PRF) and the PRF Lonafarnib Pre-clinical Drug Supply Program. Control mice were treated with monoolein-based solution alone in the same way. Lmna^G609G/609G mice were treated with clear chemical solution throughout the life span, starting from 5 weeks of age. Lmna^G609G/+ mice were treated via intraperitoneal and oral administrations, starting from 32 weeks of age.
Fig. S10. Or al administration of SLC-D011 suppresses premature aging features of LmnaG609G/+ mi c e . A.
Gross morphology of SLC-D011 treated Lmna G609G/+ mice at 36 weeks old. B. Oral administration of SLC-
D011 increases body weight s of LmnaG609G/+ mi c e (untreated: n=11; SLC-D011: n=12), * p<0.05. C. […]
intensity of H3K9me3 levels in lung, liver, and kidney tissues of age-matched Lmn a +/+ mouse, untreated
LamnG609G/+ mouse and two progerinin- treated LmnaG609G/+ mice (n = 2 independent experiments; one
Student’s t -test), **p < 0.001,*p< 0.05, N.S: not significant .AU, arbitrary units.
Fig. S12. […] A. SLC-D011, compar ed to lonafarnib, reduces […]

SMILES: CC1(C)Oc2cc3oc(=O)ccc3cc2C[C@@H]1OC/C=C/c1ccccc1 [SLC-D011]
- Lmna G609G/+ body weight (oral administration, week 56, Ave): 0.7247
- Lmna G609G/+ body weight (oral administration, week 56, individual mouse): 0.7273 and 0.6957 and 0.7368 and 0.7391
- Lmna G609G/+ body weight (oral administration, week 56, individual mouse, relative body weight): 0.7273 and 0.6957 and 0.7368 and 0.7391
- Lmna G609G/+ body weight (oral administration, week 57, Ave): 0.7124
- Lmna G609G/+ body weight (oral administration, week 57, individual mouse): 0.6818 and 0.6957 and 0.7368 and 0.7391 and 0.7273 and 0.6364
- Lmna G609G/+ body weight (oral administration, week 58, Ave): 0.7038
- Lmna G609G/+ body weight (oral administration, week 58, individual mouse): 0.6818 and 0.6522 and 0.7368 and 0.7391 and 0.7273
- Lmna G609G/+ body weight (oral administration, week 58, individual mouse, relative body weight): 0.6818 and 0.6522 and 0.7368 and 0.7391 and 0.7273
- Lmna G609G/+ body weight (oral administration, week 59, Ave): 0.6842
- Lmna G609G/+ body weight (oral administration, week 59, individual mouse): 0.6818 and 0.6522 and 0.7368 and 0.6957 and 0.7273 and 0.5909
- Lmna G609G/+ body weight (oral administration, week 60, Ave): 0.6602
- Lmna G609G/+ body weight (oral administration, week 60, individual mouse): 0.6364 and 0.6522 and 0.6842 and 0.6957 and 0.5652
- Lmna G609G/+ body weight (oral administration, week 60, individual mouse, relative body weight): 0.6364 and 0.6522 and 0.6842 and 0.6957 and 0.5652
- Lmna G609G/+ body weight (oral administration, week 61, Ave): 0.653
- Lmna G609G/+ body weight (oral administration, week 61, individual mouse): 0.6364 and 0.6522 and 0.6842 and 0.5652
- Lmna G609G/+ body weight (oral administration, week 62, Ave): 0.5992
- Lmna G609G/+ body weight (oral administration, week 62, individual mouse): 0.5909 and 0.5652 and 0.6842
- Lmna G609G/+ body weight (oral administration, week 62, individual mouse, relative body weight): 0.5909 and 0.5652 and 0.6842
- Lmna G609G/+ body weight (oral administration, week 63, Ave): 0.5294
- Lmna G609G/+ body weight (oral administration, week 63, individual mouse): 0.5455 and 0.5652 and 0.6316 and 0 and 0.5217
- Lmna G609G/+ body weight (oral administration, week 64, Ave): 0.3905
- Lmna G609G/+ body weight (oral administration, week 64, individual mouse): 0.4545 and 0.5217 and 0.5263 and 0.5652 and 0
- Lmna G609G/+ body weight (oral administration, week 64, individual mouse, relative body weight): 0.4545 and 0.5217 and 0.5263 and 0.5652 and 0
- Lmna G609G/+ body weight (oral administration, week 65, Ave): 0.2851
- Lmna G609G/+ body weight (oral administration, week 65, individual mouse): 0 and 0.4737 and 0.4783 and 0.5652
- Lmna G609G/+ body weight (oral administration, week 66, Ave): 0
- Lmna G609G/+ body weight (oral administration, week 66, individual mouse): 0
- Lmna G609G/+ body weight (oral administration, week 66, individual mouse, relative body weight): 0
- Lmna G609G/+ body weight (week 35, IP injection with SLC-D011, individual mouse, ratio to week 32): 1.037 and 0.9583
- Lmna G609G/+ body weight (week 37, IP injection with SLC-D011, individual mouse, ratio to week 32): 0.9565
- Lmna G609G/+ body weight (week 38, IP injection with SLC-D011, individual mouse, ratio to week 32): 0.9615
- Lmna G609G/+ body weight (week 39, IP injection with SLC-D011, individual mouse, ratio to week 32): 1
- Lmna G609G/+ body weight (week 42, IP injection with SLC-D011, individual mouse, ratio to week 32): 0.875
- Lmna G609G/+ body weight (week 48, IP injection with SLC-D011, individual mouse, ratio to week 32): 0.7917 and 0.875
- Lmna G609G/+ body weight (week 49, IP injection with SLC-D011, individual mouse, ratio to week 32): 0.7917 and 0.875
- Lmna G609G/+ body weight (week 50, IP injection with SLC-D011, individual mouse, ratio to week 32): 0.875
- Lmna G609G/+ body weight (week 51, IP injection with SLC-D011, individual mouse, ratio to week 32): 0.875
- Lmna G609G/+ body weight (week 52, IP injection with SLC-D011, individual mouse, ratio to week 32): 0.7778 and 0.7407 and 0.7917
- Lmna G609G/+ body weight (week 53, IP injection with SLC-D011, individual mouse, ratio to week 32): 0.7407 and 0.7778
- Lmna G609G/+ body weight (week 54, IP injection with SLC-D011, individual mouse, ratio to week 32): 0.7407 and 0.7778 and 0.8462
- Lmna G609G/+ body weight (week 55, IP injection with SLC-D011, individual mouse, ratio to week 32): 0.7407 and 0.7778
- Lmna G609G/+ body weight (week 56, IP injection with SLC-D011, individual mouse, ratio to week 32): 0.7407 and 0.7778
- Lmna G609G/+ body weight (week 57, IP injection with SLC-D011, individual mouse, ratio to week 32): 0.7407
- Lmna G609G/+ body weight (week 58, IP injection with SLC-D011, individual mouse, ratio to week 32): 0.7407 and 0.7917 and 0.7037 and 0.7391 and 0.75
- Lmna G609G/+ body weight (week 59, IP injection with SLC-D011, individual mouse, ratio to week 32): 0.7778 and 0.6957 and 0.7917 and 0.7692 and 0.7037 and 0.75
- Lmna G609G/+ body weight (week 60, IP injection with SLC-D011, individual mouse, ratio to week 32): 0.6667 and 0.6087 and 0.7083 and 0.5926 and 0.75
- Lmna G609G/+ body weight (week 61, IP injection with SLC-D011, individual mouse, ratio to week 32): 0.6667 and 0.7083 and 0 and 0.6923
- Lmna G609G/+ body weight (week 62, IP injection with SLC-D011, individual mouse, ratio to week 32): 0.6667 and 0.6087
- Lmna G609G/+ body weight (week 63, IP injection with SLC-D011, individual mouse, ratio to week 32): 0.5926 and 0 and 0.5833
- Lmna G609G/+ body weight (week 64, IP injection with SLC-D011, individual mouse, ratio to week 32): 0
